SMILES strings stand for the structures. ± gives the standard deviation of the averaged measurements. Some of the results follow. Single values are uncertain here, since repeats match poorly.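 Fusion between ACE2-bearing and full-length-spike-bearing U2OS cells was measured by imaging as the percentage of nuclei with both cell types' fluorescent markers. An inhibitory hit is a non-toxic compound whose fusion z-score is below -3, more than three standard deviations beneath the plate's DMSO wells.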

This assay deals with U2OS ACE2 x SARS-CoV-2 spike co-culture. As to the kind of experiment: cell-cell fusion (fraction fused) z-score vs plate DMSO control; higher = more fusion. To be noted: 30 µM; 5 h; toxicity class: non-toxic, passed QC.
Regarding `CCC(=O)O[C@]1(C(=O)SCF)[C@H](C)C[C@H]2[C@@H]3C[C@H](F)C4=CC(=O)C=C[C@]4(C)[C@@]3(F)[C@@H](O)C[C@@]21C` [Fluticasone propionate], the “cell-cell fusion (z-score)” value was inactive: 4.03. Then `CN(C)CC/C=C1/c2ccccc2Sc2cc(Cl)ccc21.Cl` [Chlorprothixene hydrochloride], with inactive: 0.216. As for `Cc1c(Cn2c(C)nc3c(C(=O)O)cc(N4CCOCC4)cc32)cccc1C(F)(F)F`, the “cell-cell fusion (z-score)” value was inactive: -2.15. Then `C1COC(NC(C2CC2)C2CC2)=N1` [Rilmenidine hemifumarate], with inactive: 1.06; and `Cl.OC(CCCN1CCCCC1)(c1ccccc1)c1ccccc1` [Diphenidol hydrochloride], with inactive: 3.61.

In the case of `CNC(=O)c1cc2c(cn1)[nH]c1ccccc12` [N-Methyl-beta-carboline-3-carboxamide], the “cell-cell fusion (z-score)” value is inactive: 2.94.

For `Cc1ccc(C)c(OCCCC(C)(C)C(=O)O)c1` [Gemfibrozil], the “cell-cell fusion (z-score)” value was inactive: 2.72. `CC(C)(C)C(O)/C=C/c1ccc2c(c1)OCO2` (stereo not given) [Stiripentol]: the “cell-cell fusion (z-score)” value was inactive: 1.89.

In the case of `COc1ccc(-c2ccc3cc(C(=O)O)ccc3c2)cc1C12CC3CC(CC(C3)C1)C2`, the “cell-cell fusion (z-score)” value was inactive: 0.325.

For the compound `CC(C)[C@@H]1CC[C@@H](C)C[C@H]1O`, the “cell-cell fusion (z-score)” value was inactive: 2.32. In the case of `CC(C)[C@@H]1CC[C@@H](C)C[C@H]1O` [L-Menthol] it was inactive: 1.1. In the case of `Clc1ccc(COC(Cn2ccnc2)c2ccc(Cl)cc2Cl)cc1.O=[N+]([O-])O` (stereo not given) [Econazole nitrate], the “cell-cell fusion (z-score)” value was active: -3.24. In the case of `COC(=O)N[C@H](C(=O)N1CCC[C@H]1c1nc2cc(F)c([C@H]3CC[C@H](c4cc5[nH]c([C@@H]6CCCN6C(=O)[C@@H](NC(=O)OC)[C@@H](C)OC)nc5cc4F)N3c3cc(F)c(N4CCC(c5ccc(F)cc5)CC4)c(F)c3)cc2[nH]1)[C@@H](C)OC` it was inactive: 2.68; in that of `COCCCOc1cc(C[C@@H](C[C@H](N)[C@@H](O)C[C@H](C(=O)NCC(C)(C)C(N)=O)C(C)C)C(C)C)ccc1OC.O=C(O)/C=C/C(=O)O`, inactive: 1.01; in that of `COc1cc(NS(=O)(=O)c2ccc(N)cc2)nc(OC)n1`, inactive: 2.24.

As to `OC[C@H](O)C(O)[C@@H](O)CO`, the “cell-cell fusion (z-score)” value is inactive: 2.48. Turning to `C=C1C(=O)O[C@@H]2C[C@@]3(C)CCC[C@H](C)C3=C[C@H]12`, the “cell-cell fusion (z-score)” value is inactive: -0.00999. In the case of `C[C@H](Nc1ncnc2[nH]cnc12)c1cc2cccc(Cl)c2c(=O)n1-c1ccccc1`, the “cell-cell fusion (z-score)” value is inactive: -1.04.

As for `CN[C@@H]1C(OC2[C@H](O[C@H]3[C@H](O)[C@@H](O)[C@H](NC(=N)N)[C@@H](O)[C@@H]3NC(=N)N)OC(C)[C@]2(O)CO)OC(CO)C(O)C1O` (stereo not given in full), the “cell-cell fusion (z-score)” value is inactive: 2.84. In the case of `[O-][n+]1cccc(CO)c1` it was inactive: 3.47; in that of `C=C1C(=O)[C@]23[C@H](O)[C@H]1CC[C@H]2[C@@]12CO[C@@]3(O)[C@H](O)[C@@H]1C(C)(C)CC[C@@H]2O`, inactive: 2.81. Then `CC(C)=CC1C(C(=O)O)C1(C)C` (stereo not given), with inactive: 1.48; and `CCCCC(=O)O[C@]1(C(=O)CO)[C@@H](C)CC2C3CCC4=CC(=O)C=C[C@]4(C)[C@@]3(F)C(O)C[C@@]21C` (stereo not given in full), with inactive: 0.631; and `CC(=O)O[C@H]1C[C@@H](OC(C)=O)C(C)(C)C2C[C@@H](OC(C)=O)[C@]3(C)C(CC[C@@]4(C)[C@H](c5ccoc5)C(=O)[C@H]5O[C@]543)[C@]21C` (stereo not given in full), with inactive: 3.37. Then `COC(=O)C1=C(C)NC(C)=C(C(=O)OCC(C)C)C1c1ccccc1[N+](=O)[O-]` (stereo not given), with inactive: 3.51; and `CC(=O)SCC[N+](C)(C)C.[Cl-]` [Acetylthiocholine chloride], with inactive: 2.56. Consider `C[C@H](N[C@@H](CCc1ccccc1)C(=O)O)C(=O)N1CCC[C@H]1C(=O)O.O.O` [Enalaprilat Dihydrate], for which the “cell-cell fusion (z-score)” value is inactive: 1.1.

Turning to `O=C(/C=C/C(=O)Oc1ccccc1C(=O)O)Oc1ccccc1C(=O)O`, the “cell-cell fusion (z-score)” value was inactive: 2.46. `COc1ccc2cccc(CCNC(C)=O)c2c1` [Agomelatine]: the “cell-cell fusion (z-score)” value is inactive: 1.72. In the case of `COc1cc(CNC(=O)CCCCCCC(C)C)ccc1O` [Dihydrocapsaicin] it was inactive: 2.5; in that of `Clc1cnc(Oc2ccc(Oc3ncc(Cl)cc3Cl)cc2)c(Cl)c1`, inactive: 0.215. In the case of `Cc1c(C(=O)Nc2ccc(N3C[C@@H](C)O[C@@H](C)C3)nc2)cccc1-c1ccc(OC(F)(F)F)cc1` [LDE225 (NVP-LDE225, Erismodegib)], the “cell-cell fusion (z-score)” value is inactive: 1.14. For `CC[C@@]1(O)C(=O)OCc2c1cc1n(c2=O)Cc2cc3ccccc3nc2-1`, the “cell-cell fusion (z-score)” value was inactive: 1.96.

On to `CC[C@@]1(O)C(=O)OCc2c1cc1n(c2=O)Cc2cc3ccccc3nc2-1` [(S)-(+)-Camptothecin], for which the “cell-cell fusion (z-score)” value was inactive: -0.00556. In the case of `C=CC(C1=CC(=O)C(OC)=CC1=O)c1ccc(OC)cc1` (stereo not given), the “cell-cell fusion (z-score)” value is inactive: 2.34. In the case of `Cc1cc(/C=C/c2ccc3cc(N(C)C)ccc3[n+]2C)c(C)n1-c1ccccc1.O=C([O-])c1cc2ccccc2c(Cc2c(O)c(C(=O)O)cc3ccccc23)c1O` it was inactive: 3.32; in that of `COC(=O)[C@H]1[C@H]2C[C@@H]3c4[nH]c5cc(OC)ccc5c4CCN3C[C@H]2C[C@@H](OC(=O)c2cc(OC)c(OC)c(OC)c2)[C@@H]1OC`, inactive: 2.76. In the case of `CC(C)C(=O)Nc1ccc([N+](=O)[O-])c(C(F)(F)F)c1` [Flutamide] it was inactive: 1.83. `CC(C)C(=O)Nc1ccc([N+](=O)[O-])c(C(F)(F)F)c1`: the “cell-cell fusion (z-score)” value was inactive: 2.79.

For the compound `CCc1nc(N)nc(N)c1-c1ccc(Cl)cc1`, the “cell-cell fusion (z-score)” value is inactive: 1.76. In the case of `O=C(N/N=C/c1ccc([N+](=O)[O-])o1)c1cc([N+](=O)[O-])cc([N+](=O)[O-])c1O` it was inactive: 2.34; in that of `CCS(=O)(=O)CCn1c([N+](=O)[O-])cnc1C`, inactive: 1.08. In the case of `Cl.NCC(=O)CCC(=O)O` [5-Aminolevulinic acid hydrochloride] it was inactive: 1.75; in that of `Br.CC(Cc1ccc(O)cc1)NCC(O)c1cc(O)cc(O)c1` (stereo not given), inactive: 0.432; in that of `Br.CC(Cc1ccc(O)cc1)NCC(O)c1cc(O)cc(O)c1` (stereo not given) [Fenoterol hydrobromide], inactive: -0.959. Then `CN(C)C(=O)Oc1cccc([N+](C)(C)C)c1.COS(=O)(=O)[O-]` [Hodostin], with inactive: 0.874; and `Cc1ccc(/C(=C\CN2CCCC2)c2ccccn2)cc1.Cl`, with inactive: 2.49; and `Cc1ccc(/C(=C\CN2CCCC2)c2ccccn2)cc1.Cl` [Triprolidine hydrochloride], with inactive: 1.85. For `CC(=O)Nc1ccc(OC(=O)c2ccccc2O)cc1`, the “cell-cell fusion (z-score)” value is inactive: 1.87. As for `O=C1Nc2ccccc2/C1=C1/Nc2ccccc2C1=O` [Indirubin], the “cell-cell fusion (z-score)” value is inactive: -0.089. Then `Cc1nc2n(c(=O)c1CCN1CCC(c3noc4cc(F)ccc34)CC1)CCCC2O` (stereo not given) [Paliperidone], with inactive: 4.42.

`CN(c1ncccc1CNc1nc(Nc2ccc3c(c2)CC(=O)N3)ncc1C(F)(F)F)S(C)(=O)=O`: the “cell-cell fusion (z-score)” value is -1.03 ± 4.5. Then `COc1ccc(-c2coc3cc(O)ccc3c2=O)c(OC)c1OC`, with inactive: 2.31. In the case of `Nc1nc(=O)n([C@@H]2CS[C@H](CO)O2)cc1F` [Emtricitabine], the “cell-cell fusion (z-score)” value was inactive: 1.84. Then `C[N+]1(C)C2CC(OC(=O)[C@@H](CO)c3ccccc3)CC1C1OC12.[Br-]` (stereo not given in full), with inactive: 0.0202; and `C[C@H]1C(=O)O[C@@H]2CCN3CC=C(COC(=O)[C@](C)(O)[C@]1(C)O)[C@H]23`, with inactive: 1.97. In the case of `CC1=CC(=O)[N-]S(=O)(=O)O1.[K+]` it was inactive: 2.67; in that of `CC1(O)CCOC(=O)C1` (stereo not given), inactive: 0.999. For `C[C@H](Cc1ccc(O)c(O)c1)[C@@H](C)Cc1ccc(O)c(O)c1`, the “cell-cell fusion (z-score)” value was active: -4.23. On to `C=CC[N+]1([C@H]2CC3C4CCC5C[C@H](O)[C@@H](N6CCOCC6)C[C@]5(C)C4CC[C@]3(C)[C@H]2OC(C)=O)CCCC1.[Br-]` (stereo not given in full), for which the “cell-cell fusion (z-score)” value is inactive: 0.154. Regarding `CC1=C2C(O)C(=O)OC3CC4C(C)(C)C(=O)C=C[C@]4(C)C(CC1)[C@]23C` (stereo not given in full), the “cell-cell fusion (z-score)” value is inactive: 2.12.

With `O=C1CCCC(=O)C1C(=O)c1ccc(C(F)(F)F)cc1[N+](=O)[O-]` [Nitisinone], the “cell-cell fusion (z-score)” value was inactive: 4.16. Then `CN(C)[C@@H]1C(O)=C(C(N)=O)C(=O)[C@@]2(O)C(O)=C3C(=O)c4c(O)ccc(Cl)c4[C@@H](O)[C@H]3C[C@@H]12.Cl` [Demeclocycline hydrochloride], with inactive: 1.35. In the case of `c1ccc(Cc2nc3ccccc3[nH]2)cc1` [Bendazol] it was inactive: 1.37; in that of `O=C(O)c1cc2cc(Cl)ccc2[nH]1`, inactive: 2.75; in that of `Cc1nc(/N=N/c2ccc(C(=O)[O-])cc2)c(COP(=O)([O-])[O-])c(C=O)c1O.[Na+].[Na+].[Na+]`, inactive: 2.94. For the compound `O=C(/C=C/C=C/c1ccc2c(c1)OCO2)N1CCCCC1`, the “cell-cell fusion (z-score)” value is inactive: 2.62. As for `Cc1cc(C)nc(NS(=O)(=O)c2ccc(N)cc2)n1`, the “cell-cell fusion (z-score)” value was inactive: 1.89.

On to `Cc1cccc(-c2[nH]c(C(C)(C)C)nc2-c2ccc3nccnc3c2)n1`, for which the “cell-cell fusion (z-score)” value is inactive: 2.24. Take `Cn1c(=O)c2[nH]c(-c3ccc(S(=O)(=O)O)cc3)nc2n(C)c1=O` [8-(p-Sulfophenyl)theophylline]: the “cell-cell fusion (z-score)” value was inactive: 1.13.

These data come from the supplement of paper PMC8104966.
